Measured values reported in article PMC3805583.

By UniProt entry, the sequences of proteins in these tests, tags left out.
UniProt Q96B97: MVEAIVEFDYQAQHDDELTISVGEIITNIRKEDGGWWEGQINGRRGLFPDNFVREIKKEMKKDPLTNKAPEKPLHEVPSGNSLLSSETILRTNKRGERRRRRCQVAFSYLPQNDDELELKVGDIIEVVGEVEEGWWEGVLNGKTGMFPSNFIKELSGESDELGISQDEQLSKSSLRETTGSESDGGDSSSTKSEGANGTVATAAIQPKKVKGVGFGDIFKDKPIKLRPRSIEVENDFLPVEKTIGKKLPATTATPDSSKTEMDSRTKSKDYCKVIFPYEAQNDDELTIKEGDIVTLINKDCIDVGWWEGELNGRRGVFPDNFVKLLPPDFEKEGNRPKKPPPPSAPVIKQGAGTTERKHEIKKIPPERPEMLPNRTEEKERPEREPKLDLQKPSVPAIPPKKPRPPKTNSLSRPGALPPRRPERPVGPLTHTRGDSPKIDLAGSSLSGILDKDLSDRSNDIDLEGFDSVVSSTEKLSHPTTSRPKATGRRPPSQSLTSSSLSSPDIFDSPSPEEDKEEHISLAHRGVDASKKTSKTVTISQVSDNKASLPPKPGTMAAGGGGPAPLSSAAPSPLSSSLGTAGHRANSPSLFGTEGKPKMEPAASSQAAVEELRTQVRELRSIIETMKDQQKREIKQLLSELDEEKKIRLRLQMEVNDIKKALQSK

Target: T1, C-terminally GST-tagged murine LOX-PP-WT (1-162 aa) (mouse) (UniProt P28301)
T1 sequence: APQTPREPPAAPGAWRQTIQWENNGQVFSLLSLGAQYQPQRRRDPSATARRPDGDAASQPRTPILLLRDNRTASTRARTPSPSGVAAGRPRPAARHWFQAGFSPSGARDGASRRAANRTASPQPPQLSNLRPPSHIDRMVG
Assay: affinity purification with mass spectrometry; GST or LOX-PP-GST expressed in ZR-75 cells for 24 h; lysis in Buffer A (25 mM HEPES-KOH pH 7.2, 150 mM KCl, 2 mM EDTA, 1% Triton X-100); Glutathione-Sepharose 4B 2 h at 4°C; SDS-PAGE, silver stain, ~85 kDa bands analysed by LC/MS/MS

- binding: binds
Substance: endogenous Cbl-interacting protein of 85-kDa (CIN85) (from UniProt Q96B97 1-665)

These are yes or no findings as the source states them, for the method shown. In cells and extracts the contact can be indirect. A yes stands for co-enrichment or nearness to the bait. Other partners may have been found. Sequences can lack the tags named with a protein.
